Experimental data: the supplement of paper PMC8728848
The other results are listed elsewhere or left out.

What was measured:
Assay in all cases: glycan array binding signal (z-score within array); higher = stronger binding
Conditions in all cases: glycan notation: IUPAC condensed, linker removed
[1] = biological target: Neu5Ac(a2-3)Gal(b1-4)GlcNAc(b1-2)Man(a1-3)[Neu5Ac(a2-6)Gal(b1-4)GlcNAc(b1-2)Man(a1-6)]Man(b1-4)GlcNAc(b1-4)GlcNAc
How it was run: (§1)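 Glycan array data were curated from 3228 arrays in the Consortium for Functional Glycomics database and kept only where the protein sequence was available. Glycan names were converted to IUPAC-condensed notation, and columns mapping to the same glycan were averaged. The binding signal is a within-array Z-score, averaged across arrays of the same protein sequence at different concentrations or buffers and across linkers. Negative Z-scores can be read as non-binding.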

[2] = biological target: Neu5Ac(a2-3)Gal(b1-4)GlcNAc(b1-2)[Neu5Ac(a2-3)Gal(b1-4)GlcNAc(b1-4)]Man(a1-3)[GlcNAc(b1-4)][Neu5Ac(a2-3)Gal(b1-4)GlcNAc(b1-2)[Neu5Ac(a2-3)Gal(b1-4)GlcNAc(b1-6)]Man(a1-6)]Man(b1-4)GlcNAc(b1-4)GlcNAc
How it was run: as §1

[3] = biological target: Neu5Ac(a2-3)Gal(b1-4)GlcNAc(b1-2)[Neu5Ac(a2-3)Gal(b1-4)GlcNAc(b1-4)]Man(a1-3)[GlcNAc(b1-4)][Neu5Ac(a2-3)Gal(b1-4)GlcNAc(b1-4)Man(a1-6)]Man(b1-4)GlcNAc(b1-4)GlcNAc
How it was run: as §1

[4] = biological target: Neu5Ac(a2-3)Gal(b1-4)GlcNAc(b1-2)[Neu5Ac(a2-3)Gal(b1-4)GlcNAc(b1-6)]Man(a1-6)[Neu5Ac(a2-3)Gal(b1-4)GlcNAc(b1-2)Man(a1-3)][GlcNAc(b1-4)]Man(b1-4)GlcNAc(b1-4)GlcNAc
How it was run: as §1

[5] = biological target: Neu5Ac(a2-3)Gal(b1-4)GlcNAc(b1-3)Gal
How it was run: as §1

[6] = biological target: Neu5Ac(a2-3)Gal(b1-4)GlcNAc(b1-3)Gal(b1-3)GlcNAc
How it was run: as §1

[7] = biological target: Neu5Ac(a2-3)Gal(b1-4)GlcNAc(b1-3)Gal(b1-4)GlcNAc
How it was run: as §1

[8] = biological target: Neu5Ac(a2-3)Gal(b1-4)GlcNAc(b1-3)Gal(b1-4)GlcNAc(b1-2)Man(a1-3)[Neu5Ac(a2-3)Gal(b1-4)GlcNAc(b1-3)Gal(b1-4)GlcNAc(b1-2)Man(a1-6)]Man(b1-4)GlcNAc(b1-4)GlcNAc
How it was run: as §1

[9] = biological target: Neu5Ac(a2-3)Gal(b1-4)GlcNAc(b1-3)Gal(b1-4)GlcNAc(b1-3)Gal(b1-4)GlcNAc
How it was run: as §1

[10] = biological target: Neu5Ac(a2-3)Gal(b1-4)GlcNAc(b1-3)Gal(b1-4)GlcNAc(b1-3)Gal(b1-4)GlcNAc(b1-2)Man(a1-3)[Neu5Ac(a2-3)Gal(b1-4)GlcNAc(b1-3)Gal(b1-4)GlcNAc(b1-3)Gal(b1-4)GlcNAc(b1-2)Man(a1-6)]GalNAc
How it was run: as §1

[11] = biological target: Neu5Ac(a2-3)Gal(b1-4)GlcNAc(b1-3)Gal(b1-4)GlcNAc(b1-3)GalNAc
How it was run: as §1

[12] = biological target: Neu5Ac(a2-3)Gal(b1-4)GlcNAc(b1-3)Gal(b1-4)GlcNAc(b1-3)[Neu5Ac(a2-3)Gal(b1-4)GlcNAc(b1-3)Gal(b1-4)GlcNAc(b1-6)]GalNAc
How it was run: as §1

[13] = biological target: Neu5Ac(a2-3)Gal(b1-4)GlcNAc(b1-3)Gal(b1-4)GlcNAc(b1-6)[Gal(b1-3)]GalNAc
How it was run: as §1

[14] = biological target: Neu5Ac(a2-3)Gal(b1-4)GlcNAc(b1-3)Gal(b1-4)[Fuc(a1-3)]GlcNAc
How it was run: as §1

[15] = biological target: Neu5Ac(a2-3)Gal(b1-4)GlcNAc(b1-3)GalNAc
How it was run: as §1

[16] = biological target: Neu5Ac(a2-3)Gal(b1-4)GlcNAc(b1-3)[Neu5Ac(a2-3)Gal(b1-4)GlcNAc(b1-6)]GalNAc
How it was run: as §1

[17] = biological target: Neu5Ac(a2-3)Gal(b1-4)GlcNAc(b1-6)GalNAc
How it was run: as §1

[18] = biological target: Neu5Ac(a2-3)Gal(b1-4)GlcNAc(b1-6)[Gal(b1-3)]GalNAc
How it was run: as §1

[19] = biological target: Neu5Ac(a2-3)Gal(b1-4)GlcNAc(b1-6)[Neu5Ac(a2-3)Gal(b1-3)]GalNAc
How it was run: as §1

[20] = biological target: Neu5Ac(a2-3)Gal(b1-4)GlcNAc6S
How it was run: as §1

[21] = biological target: Neu5Ac(a2-3)Gal(b1-4)[Fuc(a1-3)]GlcNAc
How it was run: as §1

[22] = biological target: Neu5Ac(a2-3)Gal(b1-4)[Fuc(a1-3)]GlcNAc(b1-2)Man
How it was run: as §1

[23] = biological target: Neu5Ac(a2-3)Gal(b1-4)[Fuc(a1-3)]GlcNAc(b1-3)Gal
How it was run: as §1

[24] = biological target: Neu5Ac(a2-3)Gal(b1-4)[Fuc(a1-3)]GlcNAc(b1-3)Gal(b1-4)GlcNAc
How it was run: as §1

[25] = biological target: Neu5Ac(a2-3)Gal(b1-4)[Fuc(a1-3)]GlcNAc(b1-3)Gal(b1-4)[Fuc(a1-3)]GlcNAc(b1-3)Gal(b1-4)[Fuc(a1-3)]GlcNAc
How it was run: as §1

[26] = biological target: Neu5Ac(a2-3)Gal(b1-4)[Fuc(a1-3)]GlcNAc(b1-3)GalNAc
How it was run: as §1

[27] = biological target: Neu5Ac(a2-3)Gal(b1-4)[Fuc(a1-3)]GlcNAc(b1-6)[Gal(b1-3)]GalNAc
How it was run: as §1

[28] = biological target: Neu5Ac(a2-3)Gal(b1-4)[Fuc(a1-3)]GlcNAc(b1-6)[Neu5Ac(a2-3)Gal(b1-3)]GalNAc
How it was run: as §1

[29] = biological target: Neu5Ac(a2-3)Gal(b1-4)[Fuc(a1-3)]GlcNAc6S
How it was run: as §1

[30] = biological target: Neu5Ac(a2-3)Gal6S(b1-4)GlcNAc
How it was run: as §1

[31] = biological target: Neu5Ac(a2-3)Gal6S(b1-4)[Fuc(a1-3)]GlcNAc
How it was run: as §1

Neu5Ac(a2-3)GalNAc = biological target: Neu5Ac(a2-3)GalNAc
How it was run: as §1

[32] = biological target: Neu5Ac(a2-3)GalNAc(b1-4)GlcNAc
How it was run: as §1

[33] = biological target: Neu5Ac(a2-3)[GalNAc(b1-4)]Gal(b1-4)Glc
How it was run: as §1

[34] = biological target: Neu5Ac(a2-3)[GalNAc(b1-4)]Gal(b1-4)GlcNAc
How it was run: as §1

[35] = biological target: Neu5Ac(a2-3)[GalNAc(b1-4)]Gal(b1-4)GlcNAc(b1-3)GalNAc
How it was run: as §1

[36] = biological target: Neu5Ac(a2-3)[Neu5Ac(a2-6)]GalNAc
How it was run: as §1

Neu5Ac(a2-6)Gal = biological target: Neu5Ac(a2-6)Gal
How it was run: as §1

[37] = biological target: Neu5Ac(a2-6)Gal(b1-3)GlcNAc(b1-3)[Gal(b1-4)GlcNAc(b1-6)]Gal(b1-4)Glc
How it was run: as §1

Neu5Ac(a2-6)Gal(b1-4)Glc = biological target: Neu5Ac(a2-6)Gal(b1-4)Glc
How it was run: as §1

[38] = biological target: Neu5Ac(a2-6)Gal(b1-4)GlcNAc
How it was run: as §1

[39] = biological target: Neu5Ac(a2-6)Gal(b1-4)GlcNAc(b1-2)Man
How it was run: as §1

[40] = biological target: Neu5Ac(a2-6)Gal(b1-4)GlcNAc(b1-2)Man(a1-3)Man(b1-4)GlcNAc(b1-4)GlcNAc
How it was run: as §1

[41] = biological target: Neu5Ac(a2-6)Gal(b1-4)GlcNAc(b1-2)Man(a1-3)[Gal(b1-4)GlcNAc(b1-2)Man(a1-6)]Man(b1-4)GlcNAc(b1-4)GlcNAc
How it was run: as §1

[42] = biological target: Neu5Ac(a2-6)Gal(b1-4)GlcNAc(b1-2)Man(a1-3)[GlcNAc(b1-2)Man(a1-6)]Man(b1-4)GlcNAc(b1-4)GlcNAc
How it was run: as §1

B1: Erv41-EDTA (Saccharomyces cerevisiae), Q04651 (protein)
chain: MKFLVNVALVFMVVYISYIYAAAPEHHHHHHDYDIPTTENLYFQGAMGYIDQQYVVDSQVRDTVQINMDIYVNTKCDWLQINVRDQTMDRKLVLEELQLEEMPFFIPYDTKVNDINEIITPELDEILGEAIPAEFREKLDTRSFFDESDPNKAHLPEFNGCHVFGSIPVNRVSGELQITAKSLGYVASRKAPLEELKFNHVINEFSFGDFYPYIDNPLDNTAQFNQDEPLTTYVYYTSVVPTLFKKLGAEVDTNQYSVNDYRYLYKDVAAKGDKMPGIFFKYNFEPLSIVVSDVRL
B1 was tested, and the “glycan array binding signal (z-score)” value [1] was 0.453, the “glycan array binding signal (z-score)” value [2] was 1.18 and the “glycan array binding signal (z-score)” value [3] was -0.72. For the same binder, the “glycan array binding signal (z-score)” value [4] was 0.255, the “glycan array binding signal (z-score)” value [5] was -0.318 and the “glycan array binding signal (z-score)” value [6] was 0.192. The “glycan array binding signal (z-score)” value [7] was -0.066, the “glycan array binding signal (z-score)” value [8] was 0.362 and the “glycan array binding signal (z-score)” value [9] was -1.18. For the same binder, the “glycan array binding signal (z-score)” value [10] was 1.38, the “glycan array binding signal (z-score)” value [11] was 0.658 and the “glycan array binding signal (z-score)” value [12] was 1.02. For the same binder, the “glycan array binding signal (z-score)” value [13] was 0.253, the “glycan array binding signal (z-score)” value [14] was 0.856 and the “glycan array binding signal (z-score)” value [15] was -0.185. For the same binder, the “glycan array binding signal (z-score)” value [16] was 0.548, the “glycan array binding signal (z-score)” value [17] was -0.767 and the “glycan array binding signal (z-score)” value [18] was -0.279. The “glycan array binding signal (z-score)” value [19] was -0.083, the “glycan array binding signal (z-score)” value [20] was -0.522 and the “glycan array binding signal (z-score)” value [21] was 0.162. The “glycan array binding signal (z-score)” value [22] was -0.111, the “glycan array binding signal (z-score)” value [23] was -0.263 and the “glycan array binding signal (z-score)” value [24] was 1.15. The “glycan array binding signal (z-score)” value [25] was 0.405, the “glycan array binding signal (z-score)” value [26] was 1.5 and the “glycan array binding signal (z-score)” value [27] was 0.537. For the same binder, the “glycan array binding signal (z-score)” value [28] was 0.921, the “glycan array binding signal (z-score)” value [29] was -0.457 and the “glycan array binding signal (z-score)” value [30] was 0.025. For the same binder, the “glycan array binding signal (z-score)” value [31] was 0.312, the “glycan array binding signal (z-score)” value (Neu5Ac(a2-3)GalNAc) was -0.308 and the “glycan array binding signal (z-score)” value [32] was -0.286. The “glycan array binding signal (z-score)” value [33] was -1, the “glycan array binding signal (z-score)” value [34] was -0.799 and the “glycan array binding signal (z-score)” value [35] was 0.196. The “glycan array binding signal (z-score)” value [36] was -0.909, the “glycan array binding signal (z-score)” value (Neu5Ac(a2-6)Gal) was -0.071 and the “glycan array binding signal (z-score)” value [37] was -0.18. The “glycan array binding signal (z-score)” value (Neu5Ac(a2-6)Gal(b1-4)Glc) was 0.512, the “glycan array binding signal (z-score)” value [38] was 0.171 and the “glycan array binding signal (z-score)” value [39] was -0.02. The “glycan array binding signal (z-score)” value [40] was 1.97, the “glycan array binding signal (z-score)” value [41] was 0.363 and the “glycan array binding signal (z-score)” value [42] was -0.231.
